In experiment [1] the target is T1, Repressor element 1-silencing transcription factor (REST) in H4 astrocytes (proximity ligation assay) (UniProt Q13127).
T1 sequence: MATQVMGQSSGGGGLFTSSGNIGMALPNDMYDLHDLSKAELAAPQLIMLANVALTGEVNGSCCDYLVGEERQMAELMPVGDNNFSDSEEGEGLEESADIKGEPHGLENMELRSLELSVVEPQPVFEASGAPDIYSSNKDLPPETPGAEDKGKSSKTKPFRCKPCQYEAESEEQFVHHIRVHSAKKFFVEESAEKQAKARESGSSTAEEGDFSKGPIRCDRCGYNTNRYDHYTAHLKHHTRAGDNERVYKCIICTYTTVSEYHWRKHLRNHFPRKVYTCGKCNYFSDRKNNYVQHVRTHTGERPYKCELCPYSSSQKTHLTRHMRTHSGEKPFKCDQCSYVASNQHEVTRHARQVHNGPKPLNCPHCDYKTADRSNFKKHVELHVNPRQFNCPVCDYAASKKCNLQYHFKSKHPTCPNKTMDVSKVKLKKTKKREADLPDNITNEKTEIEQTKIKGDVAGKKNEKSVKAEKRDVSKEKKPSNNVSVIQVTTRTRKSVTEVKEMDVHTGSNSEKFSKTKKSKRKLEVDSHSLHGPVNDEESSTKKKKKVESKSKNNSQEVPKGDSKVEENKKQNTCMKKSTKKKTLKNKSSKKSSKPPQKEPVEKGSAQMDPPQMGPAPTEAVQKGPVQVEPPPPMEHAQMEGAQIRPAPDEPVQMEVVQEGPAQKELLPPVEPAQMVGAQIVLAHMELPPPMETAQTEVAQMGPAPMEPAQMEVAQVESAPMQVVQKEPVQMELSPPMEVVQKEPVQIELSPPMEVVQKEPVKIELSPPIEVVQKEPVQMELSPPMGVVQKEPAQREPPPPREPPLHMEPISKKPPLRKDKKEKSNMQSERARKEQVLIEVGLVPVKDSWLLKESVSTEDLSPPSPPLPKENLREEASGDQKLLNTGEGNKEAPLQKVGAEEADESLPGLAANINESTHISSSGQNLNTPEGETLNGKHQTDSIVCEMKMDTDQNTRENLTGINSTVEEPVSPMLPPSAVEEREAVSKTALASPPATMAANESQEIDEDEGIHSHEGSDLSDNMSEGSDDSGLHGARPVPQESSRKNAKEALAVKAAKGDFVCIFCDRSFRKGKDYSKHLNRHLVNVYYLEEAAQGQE
Briefly: proximity ligation; H4 astrocytes fixed with 4% formaldehyde; primary antibodies for REST, CBP/p300 and/or CREB (1:250, 4 °C overnight); PLA puncta in the nuclear region; also done with DN-REST, said to interfere with the complexing.

Protein sequences, listed by entry. Tags and fused reporters are not part of them.
UniProt P16220: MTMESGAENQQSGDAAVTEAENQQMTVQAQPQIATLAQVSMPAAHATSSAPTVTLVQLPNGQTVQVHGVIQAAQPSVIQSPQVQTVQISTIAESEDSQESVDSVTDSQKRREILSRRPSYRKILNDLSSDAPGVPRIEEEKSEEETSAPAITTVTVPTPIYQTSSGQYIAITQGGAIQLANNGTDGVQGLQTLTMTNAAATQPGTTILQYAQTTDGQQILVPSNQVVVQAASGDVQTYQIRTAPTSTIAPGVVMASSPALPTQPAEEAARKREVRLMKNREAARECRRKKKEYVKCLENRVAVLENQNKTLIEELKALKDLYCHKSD

For experiment [2], the target named is T2, Repressor element 1-silencing transcription factor (REST), overexpressed in H4 astrocytes (UniProt Q13127).
T2 sequence: T1 sequence
Briefly: co-IP; 400 μg nuclear extract of H4 astrocytes overexpressing REST, 2 μg antibody, protein A/G-agarose overnight at 4 °C, washed with RIPA buffer, extracts treated with DNase I; Western blot; which antibody precipitated is not told. (Immunoblotting shows a protein as a band on a membrane.)

Consider 2 substances from PMC8626589.

Results are given in words; binding and its absence hold for the method and conditions named. Binding seen in cells or lysates may run through a third protein. Some entries that bind do so weakly or less than the wild type.

For the substance “cAMP response element-binding protein (CREB) (from UniProt P16220 1-327)”, the binding result in experiment [1] was “binds”.
With “phosphorylated CREB (an active form of CREB) (from UniProt P16220 1-327)”, the binding entry in experiment [2] is on record as “binds”.
